Measurements from publication PMC12040169 (PLOS Biology, 2025).
Some of the results follow.

test system: T1, CTL2-GFP (C. trachomatis L2/434/Bu, GFP-expressing); parameters: species or system HeLa; Intracellular C. trachomatis growth in HeLa cells, bulk GFP fluorescence relative to DMSO; conditions: bulk GFP, single well; 28.5 h, 10 µM; inhibitor
T1 construct: L2/434/Bu, GFP-expressing

Row | Compound | % of control remaining [%]
1 | COc1ccc(C(=O)N2CCC3(CCCN(C(=O)CN4C(=O)CSC4=O)C3)C2)cc1OC (stereo not shown) [CBK137088] | 85.3313
2 | O=C(Cc1c(F)cccc1F)Nc1ccc2[nH]ccc2c1 [CBK144712] | 159.064
3 | Cc1nc2cc(/N=C/c3c[nH]c4ccccc34)ccc2n1C [CBK262085] | 100
4 | Cn1ccnc1CN(CCCn1ccnc1)Cc1ccccc1F [CBK283022] | 80.676
5 | O=C(Cn1c(-c2cccs2)cc2cccnc21)NC1CC1 [CBK282552] | 125.742
6 | c1ccc(C(NCc2nnc(-c3ccco3)o2)C2CCC2)cc1 (stereo not shown) [CBK305818] | 160.613
7 | Cc1c(C)n(Cc2ccco2)c2ncnc(NCCC(=O)O)c12 [CBK307564] | 131.76
8 | O=C1Nc2ccc(-c3cccc(C(F)(F)F)c3)cc2C(=O)N2CCN(C(=O)C3CC3)C[C@H]12 [CBK289585] | 125.976
9 | CN(C)C(=O)c1ccc(-c2ccc(OC3CCN(C(=O)CCc4cccnc4)CC3)nc2)cc1 [CBK155049] | 124.855
10 | CC(C)[C@H](CO)Nc1cncc(-c2cccc(N(C)C)c2)n1 [CBK065547] | 193.879
11 | CC(C)(C)C(=O)c1cnc2sc3ccccc3n12 [CBK016512] | 142.262
12 | CN1CCC(N(C)C(=O)NCc2c(Cl)cccc2Cl)C1 (stereo not shown) [CBK156014] | 193.035
13 | Cc1sc2nc(SCCCC(=O)NCCO)nc(N)c2c1C [CBK264482] | 113.099
14 | CCOC(=O)C(NCc1nc(-c2cccc(C(F)(F)F)c2)no1)C(C)C (stereo not shown) [CBK305445] | 119.253
15 | CC(=O)Nc1ccc(S(=O)(=O)NC2(C(F)(F)F)C(=O)Nc3c2c(=O)[nH]c(=S)n3Cc2ccco2)cc1 (stereo not shown) [CBK268395] | 137.739
16 | O=C(O)C1(Cc2cccc(-c3cccs3)c2)CCCNC1 (stereo not shown) [CBK281688] | 155.041
17 | CCc1ccc2nc3c(cc2c1)CNCCO3 [CBK281940] | 108.893
18 | Cc1ccc(CNC(=O)CSc2nnc(-c3ccncc3)n2-c2ccccc2)cc1 [CBK266654] | 155.56
19 | COc1ccccc1CN(C)C(C)C(=O)Nc1ccc(S(N)(=O)=O)cc1 (stereo not shown) [CBK305839] | 145.963
20 | COc1ccc(-c2cnc(N)c(NC3CCOCC3)n2)c(OC)c1OC [CBK063844] | 114.9
21 | O=C(NCCNc1cnccn1)c1ccc(Br)cc1F [CBK305639] | 155.032
22 | CC(=O)c1ccc(S(=O)(=O)NCC2CC2)cc1 [CBK044440] | 162.012
23 | Cc1nc2ccc(NC(=O)CC3CCN(S(=O)(=O)c4cccc(F)c4)CC3)cc2[nH]1 [CBK285903] | 108.46
24 | O=C(CCc1ccccc1)N1CCC(c2n[nH]c3ncccc23)CC1 [CBK284906] | 139.973
25 | CCN(Cc1ccc(C#N)cc1F)C(=O)C(NC(=O)OC)C(C)C (stereo not shown) [CBK306372] | 127.293
26 | CCN(Cc1ccncc1)C(CC1CCCCC1)c1ccccc1 (stereo not shown) [CBK061639T] | 79.5929
27 | Cc1ccc(C(=O)CCC(=O)N2CCCC2c2ccc(F)cc2)cc1 (stereo not shown) [CBK297885] | 128.522

Looked up above.
% of control remaining [%] with O=C(CCc1ccccc1)N1CCC(c2n[nH]c3ncccc23)CC1 [CBK284906] is entered as 139.973
% of control remaining [%] with COc1ccc(-c2cnc(N)c(NC3CCOCC3)n2)c(OC)c1OC [CBK063844] is entered as 114.9

Later entries:

Row | Compound | % of control remaining [%]
28 | Nc1ncc(-c2ccc(N3CCOCC3)cc2)nc1N1CCN(CCO)CC1 [CBK063394] | 134.797
29 | O=C(Cc1c(O)c2ccccc2[nH]c1=O)NCc1ccc(Cl)cc1 [CBK160317] | 104.894
30 | CCc1nn(CC(=O)N2CCC(C)CC2)c(=O)c2cc3occc3n12 [CBK283675] | 169.243
31 | Cc1ccc(-c2cc(C(=O)Nc3ccc(S(N)(=O)=O)cc3)c3ccc(Cl)c(C)c3n2)cc1 [CBK267745] | 99.8477
32 | COc1ccc(NCc2cc3sccc3n2C)cc1OC [CBK283486] | 130.213
33 | O=C(C1CCN(Cc2ccc(F)cc2)CC1)N1CCN(C/C=C/c2ccccc2)CC1 [CBK264325G] | 111.152
34 | Cc1ccc(CN2CCCN(C(=O)CCn3cnc4c(cnn4C)c3=O)CC2)cc1 [CBK297793] | 152.422
35 | Cc1noc(C)c1C(=O)Nc1sc2c(c1C(=O)NCc1ccco1)CCCCCC2 [CBK268112] | 148.911
36 | Cc1cnn(C2CCN(C(=O)NC(C)C3OCCc4sccc43)C2)c1 (stereo not shown) [CBK304159] | 125.307
37 | Cc1nnc(SCCOc2ccc(Cl)c(C)c2)s1 [CBK026160] | 118.579
38 | Cc1nccn1CC1(O)CCN(CC(C)c2ccccc2)CC1 (stereo not shown) [CBK284954] | 136.615
39 | Cc1noc(C2(O)CCN(Cc3cccc(Cl)c3F)C2)n1 (stereo not shown) [CBK304748] | 123.869
40 | CCn1c(=O)n(CC(C)(C)O)c2cc(S(=O)(=O)N(C)C)ccc21 [CBK304893] | 129.046
41 | O=C(CCN1C(=O)COc2ccccc21)Nc1ccnn1Cc1ccccc1Br [CBK296740] | 118.809
42 | Cc1cccn2cc(CCNC(=O)CN(C)C3CCSC3)nc12 (stereo not shown) [CBK304027] | 103.659
43 | O=C1CNC(=O)C2(C/C=C/C[C@H]3COCC[C@@H]3N1)CCN(C(=O)c1cccc(Cl)c1)CC2 [CBK292066] | 131.839
44 | CC(C)NC(=O)NC[C@H]1C[C@@H]2CCN1C[C@@H]2c1cc(C2CCCCC2)nn1C [CBK289107] | 108.699
45 | COc1ccc([C@@]23CC[C@@H](NS(=O)(=O)c4ccc5ccccc5c4)C[C@@H]2N(C)CC3)cc1OC [CBK056848T] | 123.14
46 | COc1ccccc1NC(=O)N1C[C@@H]2C[C@H](C1)c1c(-c3ccccc3F)ccc(=O)n1C2 [CBK289192] | 112.203
47 | Cc1nc(C)c(C(=O)N2C3CCC2c2cc(Cl)cnc2C3)s1 (stereo not shown) [CBK284953] | 103.379
48 | Cc1cc(C(=O)NCCC(=O)O)c2ccccc2n1 [CBK286573] | 118.013
49 | Cc1ncccc1COC(=O)N1CCC(C(F)(F)F)CC1 [CBK200154] | 101.379
50 | O=C(NCc1ccccc1)c1ccc2nc[nH]c2c1 [CBK143739] | 118.164
51 | COc1ccnc(N2CCC(Oc3cccnc3N(C)C)C2)n1 (stereo not shown) [CBK304699] | 134.435
52 | Cc1ccc(NC(=O)Cn2cnc3c(cnn3-c3ccc(C)cc3)c2=O)cc1 [CBK287534] | 122.341
53 | Cn1nc(C2CCCC2)cc1[C@H]1CN2CC[C@H]1C[C@@H]2CNS(C)(=O)=O [CBK288742] | 98.7448
54 | CCn1cc(CN(C)Cc2nccs2)c2cc(C(=O)O)ncc21 [CBK306512] | 137.16

Row | Compound | % of control remaining [%]
55 | Cc1ncccc1COC(=O)N1c2ccccc2CCC1C (stereo not shown) [CBK200204] | 56.3923
56 | N#Cc1ccc(-c2cncc(NC3CCC(O)CC3)n2)cc1 (stereo not shown) [CBK166007T] | 116.866
57 | Cn1ccnc1Sc1nc2ccccc2nc1C(F)(F)F [CBK093778] | 99.6999
58 | N#C/C(=C/c1cc(Cl)c(OCc2ccc([N+](=O)[O-])cc2)c(Cl)c1)c1ccc(C(=O)O)cc1 [CBK269098] | 137.477
59 | CCc1onc(-c2ccccc2)c1C(=O)NCCO [CBK160434] | 102.108
60 | Nc1nn2c(c1Cc1c(Cl)cccc1Cl)OC(=O)CCC2=O [CBK093439] | 96.4281
61 | COc1ccc(C(CC(=O)O)c2ccc3c(c2)OCCO3)cc1OC (stereo not shown) [CBK287121] | 134.794
62 | CC(=O)N1CCCc2cc(NC(=O)NCCc3cnn(C)c3)ccc21 [CBK304937] | 118.656
63 | O=C(O)CNS(=O)(=O)c1ccc(-c2ccccc2)cc1 [CBK034457] | 130.039
64 | CC(C)(C)C(=O)/N=c1/[nH]nc(-c2cccnc2)s1 [CBK288203] | 163.009
65 | Cc1ccc(-c2cc(C(=O)N(C)Cc3cccn3C)[nH]n2)o1 [CBK283324] | 85.2979
66 | Cc1ccc(-c2n[nH]c(=S)n2CCC(=O)N(C)Cc2ccc(N3CCCCC3)cc2)cc1 [CBK297904] | 33.2434
67 | COc1cc(-c2cnc(N)c(NCc3ccncc3)n2)cc(OC)c1OC [CBK063646] | 162.947
68 | O=C(O)c1nsnc1C(=O)O [CBK278311K] | 82.0814
69 | CN(C)c1nc(Cl)c(C=Cc2cc(C(=O)O)c3ccccc3n2)s1 [CBK298272] | 129.601
70 | CC(NC(=O)c1ccccc1)C(=O)OCn1nnc2ccccc2c1=O (stereo not shown) [CBK297001] | 158.635
71 | O=C(Cc1ccccc1)N1CCN(Cc2ccc3ccccc3c2)CC1 [CBK263037] | 89.7941
72 | CN1CCC2(CCC1=O)CC(NC(=O)C1CC1)c1ccccc1O2 (stereo not shown) [CBK284455] | 131.206
73 | CSc1ccccc1CNC(=O)Cn1nnc(-c2ccc(CN3CCC(C)CC3)cc2)n1 [CBK144573C] | 106.129
74 | COc1cccc(CC(=O)Nc2ncccc2OCCCC#N)c1 [CBK304961] | 116.509
75 | O=C(CSc1cccs1)Nc1nccs1 [CBK019601] | 155.335
76 | O=C(NCc1cccc(C(F)(F)F)c1)N1CCN(c2ccc(F)cc2)CC1 [CBK156390] | 100
77 | O=C(Nc1ccc(S(=O)(=O)N2CCCCC2)cc1)c1ccc(NS(=O)(=O)c2ccccc2)cc1 [CBK268348] | 114.973
78 | O=C(CC1(O)C(=O)N(Cc2ccccc2Cl)c2ccccc21)c1cc2ccccc2oc1=O (stereo not shown) [CBK265255] | 114.511
79 | O=c1[nH]c2ccc(Cl)cc2c(-c2ccccc2)c1N1CCN(Cc2ccc3c(c2)OCO3)CC1 [CBK265776] | 106.03

Sorted by number of heavy atoms (smallest number first): 14 of the compounds above
Row | Compound | % of control remaining [%]
68 | O=C(O)c1nsnc1C(=O)O [CBK278311K] | 82.0814
75 | O=C(CSc1cccs1)Nc1nccs1 [CBK019601] | 155.335
64 | CC(C)(C)C(=O)/N=c1/[nH]nc(-c2cccnc2)s1 [CBK288203] | 163.009
59 | CCc1onc(-c2ccccc2)c1C(=O)NCCO [CBK160434] | 102.108
63 | O=C(O)CNS(=O)(=O)c1ccc(-c2ccccc2)cc1 [CBK034457] | 130.039
57 | Cn1ccnc1Sc1nc2ccccc2nc1C(F)(F)F [CBK093778] | 99.6999
55 | Cc1ncccc1COC(=O)N1c2ccccc2CCC1C (stereo not shown) [CBK200204] | 56.3923
72 | CN1CCC2(CCC1=O)CC(NC(=O)C1CC1)c1ccccc1O2 (stereo not shown) [CBK284455] | 131.206
62 | CC(=O)N1CCCc2cc(NC(=O)NCCc3cnn(C)c3)ccc21 [CBK304937] | 118.656
71 | O=C(Cc1ccccc1)N1CCN(Cc2ccc3ccccc3c2)CC1 [CBK263037] | 89.7941
67 | COc1cc(-c2cnc(N)c(NCc3ccncc3)n2)cc(OC)c1OC [CBK063646] | 162.947
66 | Cc1ccc(-c2n[nH]c(=S)n2CCC(=O)N(C)Cc2ccc(N3CCCCC3)cc2)cc1 [CBK297904] | 33.2434
78 | O=C(CC1(O)C(=O)N(Cc2ccccc2Cl)c2ccccc21)c1cc2ccccc2oc1=O (stereo not shown) [CBK265255] | 114.511
79 | O=c1[nH]c2ccc(Cl)cc2c(-c2ccccc2)c1N1CCN(Cc2ccc3c(c2)OCO3)CC1 [CBK265776] | 106.03
